Measured values reported in publication PMC6317315.
Like-named read-outs stand apart in the source and are kept apart here. No constants are given. Whether binding was seen depends on the method and setting. Binding seen in cells or lysates may run through a third protein. These calls come from enrichment with a bait or labelling near it, and not all partners need be listed. For some assays here: No binding means not detected with the bait.

The chains behind the UniProt entries cited, without tags or fusion partners. Where a name states a change or a piece, a line headed by the entry shows the natural chain unless it says otherwise.
UniProt O01819: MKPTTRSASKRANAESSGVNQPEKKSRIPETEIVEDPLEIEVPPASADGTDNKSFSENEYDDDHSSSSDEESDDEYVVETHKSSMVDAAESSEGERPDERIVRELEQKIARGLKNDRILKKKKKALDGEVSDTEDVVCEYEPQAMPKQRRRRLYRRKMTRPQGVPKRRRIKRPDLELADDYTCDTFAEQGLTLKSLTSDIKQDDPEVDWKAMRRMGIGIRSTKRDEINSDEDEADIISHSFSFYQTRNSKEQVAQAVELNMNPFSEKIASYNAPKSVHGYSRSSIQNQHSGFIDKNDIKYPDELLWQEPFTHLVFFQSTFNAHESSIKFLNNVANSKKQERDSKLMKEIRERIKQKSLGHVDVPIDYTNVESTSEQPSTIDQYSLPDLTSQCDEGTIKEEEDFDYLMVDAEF
UniProt Q23096: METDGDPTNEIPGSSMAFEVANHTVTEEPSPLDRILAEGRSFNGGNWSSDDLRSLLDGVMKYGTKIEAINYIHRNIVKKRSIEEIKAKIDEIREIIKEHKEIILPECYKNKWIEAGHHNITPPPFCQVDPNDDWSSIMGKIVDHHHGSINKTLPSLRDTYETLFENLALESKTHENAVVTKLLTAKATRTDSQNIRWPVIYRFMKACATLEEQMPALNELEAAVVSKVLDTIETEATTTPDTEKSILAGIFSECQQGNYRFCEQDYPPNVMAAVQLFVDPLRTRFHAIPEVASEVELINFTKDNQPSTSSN

T1: piRNA silencing-defective 1 (PRDE-1) (C. elegans (endogenous in N2 animals)) (UniProt O17828)
T1 sequence: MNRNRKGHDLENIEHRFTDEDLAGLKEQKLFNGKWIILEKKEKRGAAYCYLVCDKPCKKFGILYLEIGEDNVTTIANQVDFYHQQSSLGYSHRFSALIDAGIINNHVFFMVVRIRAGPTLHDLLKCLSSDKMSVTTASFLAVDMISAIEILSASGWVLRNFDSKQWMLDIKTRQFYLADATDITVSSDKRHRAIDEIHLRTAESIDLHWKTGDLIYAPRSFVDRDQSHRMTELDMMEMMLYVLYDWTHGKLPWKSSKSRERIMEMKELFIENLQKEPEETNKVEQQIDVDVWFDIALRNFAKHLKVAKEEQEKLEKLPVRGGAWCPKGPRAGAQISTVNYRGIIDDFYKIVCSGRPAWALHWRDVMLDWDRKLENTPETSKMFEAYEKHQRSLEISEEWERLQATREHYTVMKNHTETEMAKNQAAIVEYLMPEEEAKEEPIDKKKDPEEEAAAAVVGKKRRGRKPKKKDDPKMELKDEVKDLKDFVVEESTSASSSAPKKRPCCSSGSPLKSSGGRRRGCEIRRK


Legend:
[1] = molecular target: T1, piRNA silencing-defective 1 (PRDE-1) (C. elegans (endogenous in N2 animals)); experiment: affinity purification with mass spectrometry; anti-PRDE-1 antibody KSOJ coupled to Dynabeads, nuclear extracts of young adult N2 animals in PBSCM buffer, overnight at 4°C, eight washes; controls: prde-1(mj207) mutant and uncoupled IgG beads
[2] = molecular target: T1, piRNA silencing-defective 1 (PRDE-1) (C. elegans (endogenous in N2 animals)); experiment: as above; remark: listed apart in the source
[3] = molecular target: TOFU-5::GFP::3xFlag (C. elegans); experiment: affinity purification with mass spectrometry; anti-GFP beads, lysate of nonsynchronized animals expressing TOFU-5::GFP, lysis buffer with 150 mM NaCl (2x: 300 mM) and Triton X-100, 1 h at 4°C, three washes

binding [1] | binding [2] | binding [3] | Molecule
binds | – | – | twenty-one-U fouled-up 4 (TOFU-4) (from UniProt O01819)
binds | – | – | twenty-one-U fouled-up 5 (TOFU-5) (from UniProt Q23096)
– | binds | – | TATA-box-binding protein 1 (TBP-1) (protein, UniProt P32085 1-340) MNLNSPAVSMLGGDTPAHGGPNSVLGGQGPSSILTGHGPNSVMGPNSILGPGSVLNPQSIQPMQSQQMHSLQGSSMQMHSHLANSNLNLNINPASVGPDRNPGSVMHHNLDINPPSVAYQNLTVPMTPLAYSVYDRDALTHQAPASNIAATMVPATPASQLDIPMPALQNIVSTVNLGVQLDLKKIALHARNAEYNPKRFAAVIMRIREPRTTALIFSSGKMVCTGAKSEEASRLAARKYARIVQKLGFQAKFTEFMVQNMVGSCDVRFPIQLEGLCITHSQFSTYEPELFPGLIYRMVKPRVVLLIFVSGKVVITGAKTKRDIDEAFGQIYPILKGFKK
– | no binding | no binding | UNC-130 (protein, UniProt Q18694 1-333) MLFSMESILSSTKPKLEPPPKLEPEVTINEQVVDLPRSNTRLSEPSTSASVLEHDLKFGESRKRSRSLGDEPTEDEDGVPVRKANKRNHSTSSAADSSSDDAKDDDDDDDSTSRKSMSGHRKSSHAKPPYSYIALIAMSILNSPEKKLTLSEICEFIINKFEYYKEKFPAWQNSIRHNLSLNDCFVKVARGPGNPGKGNYWALDPNCEDMFDNGSFLRRRKRYKKNSDTYHEMMSHHPMPFPPFLPQGMPFPPRMMHPMANIPMLGHPMNPRAVPNMPAFFIPQNIDSQKLLSMMASRIMPMDAPVSSGQKRTSSSSSPNENGSSAVSDKLSA
